Measured values published in the supplement of paper PMC10849652.
The other results are listed elsewhere or left out.

By UniProt entry, the sequences of proteins in these tests, tags left out. Where a name states a change or a piece, a line headed by the entry shows the natural chain unless it says otherwise.
UniProt P34059: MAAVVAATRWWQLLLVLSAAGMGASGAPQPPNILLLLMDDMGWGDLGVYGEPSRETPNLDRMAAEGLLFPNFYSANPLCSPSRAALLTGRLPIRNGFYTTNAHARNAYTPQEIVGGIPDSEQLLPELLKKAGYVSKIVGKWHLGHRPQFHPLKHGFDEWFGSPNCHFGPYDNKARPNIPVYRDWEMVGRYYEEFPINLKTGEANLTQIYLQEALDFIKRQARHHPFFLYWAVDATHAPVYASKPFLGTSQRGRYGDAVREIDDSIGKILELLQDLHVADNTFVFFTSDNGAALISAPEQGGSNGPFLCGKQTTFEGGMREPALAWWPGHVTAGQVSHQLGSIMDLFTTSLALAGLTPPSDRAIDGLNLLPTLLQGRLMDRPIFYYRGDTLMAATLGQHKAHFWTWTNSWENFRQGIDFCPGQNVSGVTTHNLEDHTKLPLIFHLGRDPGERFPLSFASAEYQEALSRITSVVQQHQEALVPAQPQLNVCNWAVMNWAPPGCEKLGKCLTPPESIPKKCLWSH
UniProt Q8NB37: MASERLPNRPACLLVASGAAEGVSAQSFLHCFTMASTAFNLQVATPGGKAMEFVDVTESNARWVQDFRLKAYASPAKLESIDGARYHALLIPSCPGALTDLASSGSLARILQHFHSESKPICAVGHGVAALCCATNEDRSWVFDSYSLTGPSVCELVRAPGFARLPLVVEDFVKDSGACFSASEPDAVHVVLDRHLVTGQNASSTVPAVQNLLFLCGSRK
UniProt Q10472: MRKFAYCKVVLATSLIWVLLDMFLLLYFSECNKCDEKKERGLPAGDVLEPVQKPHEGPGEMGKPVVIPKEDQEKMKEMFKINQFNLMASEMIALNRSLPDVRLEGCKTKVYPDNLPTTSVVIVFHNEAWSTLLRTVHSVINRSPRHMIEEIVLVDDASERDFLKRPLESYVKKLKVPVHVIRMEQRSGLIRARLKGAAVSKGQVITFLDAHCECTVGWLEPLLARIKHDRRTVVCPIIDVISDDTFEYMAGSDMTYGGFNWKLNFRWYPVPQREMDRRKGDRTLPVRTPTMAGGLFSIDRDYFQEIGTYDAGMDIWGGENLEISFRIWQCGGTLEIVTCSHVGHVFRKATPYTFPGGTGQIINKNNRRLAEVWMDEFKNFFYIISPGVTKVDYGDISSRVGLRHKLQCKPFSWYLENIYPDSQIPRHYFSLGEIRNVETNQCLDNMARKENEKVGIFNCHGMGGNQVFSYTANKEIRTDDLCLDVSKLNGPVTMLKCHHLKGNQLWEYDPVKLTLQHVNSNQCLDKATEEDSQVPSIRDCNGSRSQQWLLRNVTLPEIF
UniProt P0CL80: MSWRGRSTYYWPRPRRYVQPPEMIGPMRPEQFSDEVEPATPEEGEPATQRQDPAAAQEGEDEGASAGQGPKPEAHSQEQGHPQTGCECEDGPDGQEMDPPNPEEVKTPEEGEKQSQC
UniProt Q05932: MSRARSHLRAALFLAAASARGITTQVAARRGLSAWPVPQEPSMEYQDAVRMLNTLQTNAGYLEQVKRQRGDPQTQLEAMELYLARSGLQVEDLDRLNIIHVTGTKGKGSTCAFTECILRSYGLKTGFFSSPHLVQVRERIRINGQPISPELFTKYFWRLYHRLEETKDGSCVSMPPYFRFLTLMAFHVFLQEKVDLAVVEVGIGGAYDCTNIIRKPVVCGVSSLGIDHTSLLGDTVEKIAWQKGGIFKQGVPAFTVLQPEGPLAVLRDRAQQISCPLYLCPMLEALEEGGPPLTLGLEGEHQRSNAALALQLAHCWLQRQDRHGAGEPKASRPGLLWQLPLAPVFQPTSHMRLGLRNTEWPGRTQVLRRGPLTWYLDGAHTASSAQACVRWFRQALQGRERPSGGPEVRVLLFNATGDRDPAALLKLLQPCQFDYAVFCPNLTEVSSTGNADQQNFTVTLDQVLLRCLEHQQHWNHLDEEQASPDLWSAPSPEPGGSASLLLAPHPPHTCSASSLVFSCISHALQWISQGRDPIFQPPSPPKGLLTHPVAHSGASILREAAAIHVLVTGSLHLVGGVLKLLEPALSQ
UniProt Q13069: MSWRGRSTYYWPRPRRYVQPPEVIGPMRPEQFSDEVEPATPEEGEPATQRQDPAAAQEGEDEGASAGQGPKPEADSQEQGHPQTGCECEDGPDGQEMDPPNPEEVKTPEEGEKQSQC
UniProt Q96CU9: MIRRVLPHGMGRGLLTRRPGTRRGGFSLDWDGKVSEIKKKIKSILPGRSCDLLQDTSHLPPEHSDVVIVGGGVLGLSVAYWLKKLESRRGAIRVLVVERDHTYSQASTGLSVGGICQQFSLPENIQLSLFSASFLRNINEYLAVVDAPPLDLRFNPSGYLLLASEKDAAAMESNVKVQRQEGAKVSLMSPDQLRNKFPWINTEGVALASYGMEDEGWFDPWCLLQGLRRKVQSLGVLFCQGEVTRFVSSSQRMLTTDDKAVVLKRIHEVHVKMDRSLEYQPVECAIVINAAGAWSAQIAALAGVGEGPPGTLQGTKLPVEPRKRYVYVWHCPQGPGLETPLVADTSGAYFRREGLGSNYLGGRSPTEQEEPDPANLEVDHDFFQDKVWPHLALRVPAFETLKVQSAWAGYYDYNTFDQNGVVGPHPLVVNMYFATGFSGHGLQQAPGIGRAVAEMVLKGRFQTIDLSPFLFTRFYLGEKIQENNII
UniProt Q96C23: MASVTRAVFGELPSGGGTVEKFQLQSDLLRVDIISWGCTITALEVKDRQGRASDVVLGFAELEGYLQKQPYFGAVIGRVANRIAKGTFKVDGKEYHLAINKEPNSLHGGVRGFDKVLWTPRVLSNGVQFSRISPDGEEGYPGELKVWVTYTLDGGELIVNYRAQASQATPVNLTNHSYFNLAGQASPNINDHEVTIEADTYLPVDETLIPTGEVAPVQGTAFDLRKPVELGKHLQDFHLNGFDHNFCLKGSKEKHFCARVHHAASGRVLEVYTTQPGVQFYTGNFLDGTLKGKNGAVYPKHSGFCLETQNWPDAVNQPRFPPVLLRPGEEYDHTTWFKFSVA
UniProt Q6NT46: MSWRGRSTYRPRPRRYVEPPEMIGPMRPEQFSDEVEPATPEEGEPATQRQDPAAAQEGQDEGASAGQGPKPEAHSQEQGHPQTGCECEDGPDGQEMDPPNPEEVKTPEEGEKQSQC
UniProt P04406: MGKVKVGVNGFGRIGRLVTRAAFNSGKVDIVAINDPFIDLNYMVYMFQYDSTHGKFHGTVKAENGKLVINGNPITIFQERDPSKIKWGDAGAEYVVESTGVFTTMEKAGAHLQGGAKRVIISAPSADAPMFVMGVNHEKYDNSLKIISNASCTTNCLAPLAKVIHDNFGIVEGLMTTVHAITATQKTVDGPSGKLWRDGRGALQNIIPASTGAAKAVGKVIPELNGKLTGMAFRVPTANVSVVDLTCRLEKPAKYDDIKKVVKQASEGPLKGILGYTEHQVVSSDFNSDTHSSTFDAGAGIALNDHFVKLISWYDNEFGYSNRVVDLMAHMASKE
UniProt Q9BZ67: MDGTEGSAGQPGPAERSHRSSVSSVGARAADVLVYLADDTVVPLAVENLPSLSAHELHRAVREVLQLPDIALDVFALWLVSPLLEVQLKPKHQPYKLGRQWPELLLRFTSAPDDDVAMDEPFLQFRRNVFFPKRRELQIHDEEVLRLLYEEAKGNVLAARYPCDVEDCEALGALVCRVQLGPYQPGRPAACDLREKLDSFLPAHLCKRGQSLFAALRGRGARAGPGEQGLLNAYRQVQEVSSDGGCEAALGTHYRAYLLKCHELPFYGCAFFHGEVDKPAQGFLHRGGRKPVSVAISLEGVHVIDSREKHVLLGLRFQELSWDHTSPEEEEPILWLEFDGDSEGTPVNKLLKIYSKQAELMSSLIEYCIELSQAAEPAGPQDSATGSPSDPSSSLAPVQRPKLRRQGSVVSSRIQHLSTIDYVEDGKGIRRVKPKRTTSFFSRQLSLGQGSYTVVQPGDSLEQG
UniProt A2VDF0: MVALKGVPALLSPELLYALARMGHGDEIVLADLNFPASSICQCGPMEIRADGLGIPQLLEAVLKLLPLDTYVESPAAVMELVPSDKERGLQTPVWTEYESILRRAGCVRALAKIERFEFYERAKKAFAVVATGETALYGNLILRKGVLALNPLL
UniProt P02794, whole entry, looked up: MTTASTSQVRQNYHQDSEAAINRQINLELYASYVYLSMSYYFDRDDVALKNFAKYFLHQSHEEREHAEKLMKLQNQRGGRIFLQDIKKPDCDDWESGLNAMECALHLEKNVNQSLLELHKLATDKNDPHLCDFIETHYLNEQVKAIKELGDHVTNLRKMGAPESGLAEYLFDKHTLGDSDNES
UniProt P48507: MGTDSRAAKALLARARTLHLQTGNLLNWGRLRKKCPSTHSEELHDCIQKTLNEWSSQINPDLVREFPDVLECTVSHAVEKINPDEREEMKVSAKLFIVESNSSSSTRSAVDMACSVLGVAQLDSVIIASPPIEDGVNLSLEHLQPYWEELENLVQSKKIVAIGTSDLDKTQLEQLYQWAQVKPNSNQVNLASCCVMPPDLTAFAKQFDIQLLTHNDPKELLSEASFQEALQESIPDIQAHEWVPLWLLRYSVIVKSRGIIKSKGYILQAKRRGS
UniProt P51114, whole entry, looked up: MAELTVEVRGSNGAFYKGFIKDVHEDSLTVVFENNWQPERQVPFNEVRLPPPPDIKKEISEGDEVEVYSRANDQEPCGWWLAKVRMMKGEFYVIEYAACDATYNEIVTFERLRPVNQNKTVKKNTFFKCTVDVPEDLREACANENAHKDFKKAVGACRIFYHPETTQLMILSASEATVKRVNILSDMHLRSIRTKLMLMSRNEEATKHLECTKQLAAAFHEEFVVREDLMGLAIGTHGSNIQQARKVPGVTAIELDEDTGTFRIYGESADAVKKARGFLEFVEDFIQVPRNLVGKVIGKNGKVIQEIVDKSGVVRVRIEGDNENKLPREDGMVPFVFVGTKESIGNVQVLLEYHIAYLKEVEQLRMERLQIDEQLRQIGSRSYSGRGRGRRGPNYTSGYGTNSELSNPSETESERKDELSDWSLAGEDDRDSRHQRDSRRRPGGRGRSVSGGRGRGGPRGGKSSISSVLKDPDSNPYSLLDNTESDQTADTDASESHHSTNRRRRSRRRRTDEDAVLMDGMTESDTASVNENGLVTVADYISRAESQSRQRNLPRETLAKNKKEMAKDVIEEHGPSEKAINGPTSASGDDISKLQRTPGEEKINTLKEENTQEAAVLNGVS
UniProt O14976: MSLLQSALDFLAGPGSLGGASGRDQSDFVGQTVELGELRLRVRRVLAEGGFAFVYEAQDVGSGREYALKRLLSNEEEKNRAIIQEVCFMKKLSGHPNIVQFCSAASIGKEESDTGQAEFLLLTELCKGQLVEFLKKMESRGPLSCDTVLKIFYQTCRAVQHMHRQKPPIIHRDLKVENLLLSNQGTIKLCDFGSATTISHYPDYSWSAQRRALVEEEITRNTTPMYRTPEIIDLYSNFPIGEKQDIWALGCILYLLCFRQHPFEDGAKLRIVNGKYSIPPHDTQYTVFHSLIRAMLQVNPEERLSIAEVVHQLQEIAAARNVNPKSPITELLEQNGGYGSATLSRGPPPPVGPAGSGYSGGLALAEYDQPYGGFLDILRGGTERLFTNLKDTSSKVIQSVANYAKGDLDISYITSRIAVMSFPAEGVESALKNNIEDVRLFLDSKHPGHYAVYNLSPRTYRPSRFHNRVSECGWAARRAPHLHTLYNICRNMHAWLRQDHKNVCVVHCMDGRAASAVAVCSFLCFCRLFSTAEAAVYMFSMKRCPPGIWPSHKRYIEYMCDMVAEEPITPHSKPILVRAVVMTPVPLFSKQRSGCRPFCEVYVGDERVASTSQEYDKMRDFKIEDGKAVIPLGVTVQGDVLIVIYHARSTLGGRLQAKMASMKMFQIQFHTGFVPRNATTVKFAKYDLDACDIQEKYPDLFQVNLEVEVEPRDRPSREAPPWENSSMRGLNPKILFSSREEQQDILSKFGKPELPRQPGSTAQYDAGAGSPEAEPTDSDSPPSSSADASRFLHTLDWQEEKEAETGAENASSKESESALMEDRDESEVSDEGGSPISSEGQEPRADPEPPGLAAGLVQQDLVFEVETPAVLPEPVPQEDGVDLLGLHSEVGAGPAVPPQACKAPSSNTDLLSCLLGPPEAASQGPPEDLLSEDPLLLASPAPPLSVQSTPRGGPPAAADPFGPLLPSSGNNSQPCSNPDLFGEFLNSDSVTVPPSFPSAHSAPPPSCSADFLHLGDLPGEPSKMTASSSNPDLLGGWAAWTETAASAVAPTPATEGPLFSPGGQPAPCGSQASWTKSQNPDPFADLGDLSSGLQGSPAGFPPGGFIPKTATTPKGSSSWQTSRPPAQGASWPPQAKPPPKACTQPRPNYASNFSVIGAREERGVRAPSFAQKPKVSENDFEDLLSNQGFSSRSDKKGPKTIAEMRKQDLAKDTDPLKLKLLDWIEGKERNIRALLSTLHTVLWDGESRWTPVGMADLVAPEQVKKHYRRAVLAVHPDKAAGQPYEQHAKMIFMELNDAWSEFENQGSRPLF
UniProt Q8IVP5: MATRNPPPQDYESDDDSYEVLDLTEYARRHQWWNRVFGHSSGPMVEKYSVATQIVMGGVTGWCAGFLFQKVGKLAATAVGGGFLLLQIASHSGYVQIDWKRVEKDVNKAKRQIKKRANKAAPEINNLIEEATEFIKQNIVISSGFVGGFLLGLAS

Key:
Experiment in all cases: log2 fold change, soluble protein after heating vs DMSO (PISA); higher = thermal stabilisation; K562 lysate, 10 uM; active = over 0.2 and 3.5 SD of the protein, either way, in both replicates (recomputed)
nilotinib = compound: Cc1cn(-c2cc(NC(=O)c3ccc(C)c(Nc4nccc(-c5cccnc5)n4)c3)cc(C(F)(F)F)c2)cn1 [nilotinib]
In short: (§1)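 Thermal stability, expressed as log-two fold change relative to solvent controls, is given from duplicates. Crude K562 extract in PBS pH 7.4 with 1 mM MgCl2, at 1 mg/mL protein, was treated with 10 μM compound for 30 min and heated in aliquots for 3 min across 48°C-58°C. After pooling, adjustment to 0.5% NP-40 at 4°C and centrifugation at 21,000xg for 90 min, supernatant protein was measured by TMTpro 16plex LC-MS/MS with channel sums equalised.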

[1] = compound: Cc1nc(Nc2n[nH]c3c2CN(C(=O)N[C@H](CN(C)C)c2ccccc2)C3(C)C)c2sccc2n1
In short: as §1

dasatinib = compound: Cc1nc(Nc2ncc(C(=O)Nc3c(C)cccc3Cl)s2)cc(N2CCN(CCO)CC2)n1 [dasatinib]
In short: as §1

[2] = compound: Cc1ncc(-c2ccnc(Nc3ccc(S(C)(=O)=O)cc3)n2)n1C(C)C
In short: as §1

[3] = compound: Cn1cc(-c2ccc3c(c2)CCN3C(=O)Cc2cccc(C(F)(F)F)c2)c2c(N)ncnc21
In short: as §1

quisinostat = compound: Cn1cc(CNCC2CCN(c3ncc(C(=O)NO)cn3)CC2)c2ccccc21 [quisinostat]
In short: as §1

tipifarnib = compound: Cn1cncc1[C@@](N)(c1ccc(Cl)cc1)c1ccc2c(c1)c(-c1cccc(Cl)c1)cc(=O)n2C [tipifarnib]
In short: as §1

[4] = compound: NC(=O)Nc1cc(-c2cccc(F)c2)sc1C(=O)N[C@H]1CCCNC1
In short: as §1

[5] = compound: NC(=O)c1cnc(N[C@@H]2CCCC[C@@H]2N)nc1Nc1cccc(-n2nccn2)c1
In short: as §1

[6] = compound: NC1(c2ccc(-c3nc4ccn5c(=O)[nH]nc5c4cc3-c3ccccc3)cc2)CCC1
In short: as §1

Measured: log2 fold change

GALNS (UniProt P34059)
inactive: nilotinib 0.028 | [1] -0.006 | dasatinib 0.01 | [2] -0.004 | [3] 0 | quisinostat 0.02 | tipifarnib -0.015 | [4] 0.019 | [5] 0.084 | [6] -0.02

FTSJ1 (UniProt Q9UET6)
inactive: nilotinib -0.013 | [1] -0.039 | dasatinib -0.016 | [2] -0.007 | [3] -0.007 | quisinostat -0.032 | tipifarnib -0.054 | [4] 0.035 | [5] -0.001 | [6] 0.029

GATD1 (UniProt Q8NB37)
inactive: nilotinib 0.017 | [1] -0.036 | dasatinib -0.002 | [2] 0.123 | [3] 0.102 | quisinostat -0.089 | tipifarnib 0.011 | [4] 0.044 | [5] -0.013 | [6] -0.02

GALNT1 (UniProt Q10472)
inactive: nilotinib 0.007 | [1] 0.115 | dasatinib -0.024 | [2] 0.004 | [3] 0.029 | quisinostat 0.043 | tipifarnib 0.018 | [4] 0.007 | [5] 0.025 | [6] 0.035

GAB1 isoform 2 (UniProt Q13480)
inactive: nilotinib -0.019 | [1] 0.039 | dasatinib -0.025 | [2] 0.005 | [3] 0.025 | quisinostat -0.049 | tipifarnib 0.02 | [4] 0.005 | [5] 0.007 | [6] 0.042

FURIN (UniProt P09958)
inactive: nilotinib -0.018 | [1] -0.122 | dasatinib 0.131 | [2] -0.007 | [3] -0.04 | quisinostat -0.009 | tipifarnib 0.03 | [4] 0.027 | [6] -0.032

GAGE12F (UniProt P0CL80)
inactive: nilotinib 0.03 | [1] 0.044 | dasatinib 0 | [2] 0.024 | [3] 0.004 | quisinostat -0.079 | tipifarnib -0.007 | [4] -0.056 | [5] 0.025 | [6] -0.01

FOXRED2 (UniProt Q8IWF2)
inactive: nilotinib -0.036 | [1] 0.101 | dasatinib 0.103 | [2] -0.136 | [3] -0.028 | quisinostat -0.022 | tipifarnib 0.044 | [4] 0.039 | [6] -0.036

GART (UniProt C9JZG2)
inactive: nilotinib -0.085 | [1] -0.033 | [2] 0.042 | quisinostat -0.373 | tipifarnib -0.101 | [4] -0.02 | [5] 0.139

FPGS (UniProt Q05932)
inactive: nilotinib 0.024 | [1] 0.074 | dasatinib 0.041 | [2] 0.016 | [3] -0.025 | tipifarnib -0.045

GAB2 (UniProt Q9UQC2)
inactive: nilotinib -0.03 | [1] 0.028 | dasatinib 0.005 | [2] -0.006 | [3] 0.066 | quisinostat -0.087 | tipifarnib -0.001 | [4] 0.016 | [5] 0.012 | [6] -0.004

GAGE5 (UniProt Q13069)
inactive: nilotinib -0.039 | [1] 0.023 | dasatinib 0.018 | [2] -0.037 | [3] -0.113 | quisinostat -0.047 | tipifarnib 0.02 | [4] -0.017 | [5] -0.016 | [6] 0.007

GATAD2A isoform 3 (UniProt Q86YP4)
inactive: nilotinib 0.041 | [1] 0.001 | dasatinib 0.006 | [2] -0.009 | [3] 0.001 | quisinostat -0.074 | tipifarnib -0.009 | [4] 0.032 | [5] 0.002 | [6] -0.024

FOXRED1 (UniProt Q96CU9)
inactive: nilotinib -0.003 | [1] -0.025 | dasatinib -0.044 | [2] -0.051 | [3] -0.017 | quisinostat -0.021 | tipifarnib -0.011 | [4] 0.005 | [5] 0.018 | [6] -0.032

GALM (UniProt Q96C23)
inactive: nilotinib 0.034 | [1] -0.029 | dasatinib -0.007 | [2] -0.017 | [3] -0.025 | quisinostat -0.012 | tipifarnib -0.009 | [4] 0.005 | [5] 0.011 | [6] -0.004

GAGE2A (UniProt Q6NT46)
inactive: nilotinib 0.006 | [1] 0.012 | dasatinib 0.056 | [2] -0.018 | [3] -0.091 | quisinostat -0.05 | tipifarnib 0.102 | [4] 0.001 | [5] -0.039 | [6] -0.023

GAPDH (UniProt P04406)
inactive: nilotinib 0.045 | [1] -0.026 | dasatinib -0.001 | [2] -0.023 | [3] 0 | quisinostat 0.114 | tipifarnib 0.042 | [4] 0 | [5] -0.019 | [6] 0.018

FREM2 (UniProt Q5SZK8)
inactive: nilotinib -0.108 | [1] 0.041 | dasatinib -0.071 | [2] -0.113 | [3] -0.014 | quisinostat -0.223 | tipifarnib -0.168 | [4] 0.048 | [5] 0.059 | [6] 0.04

FRMD8 (UniProt Q9BZ67)
inactive: nilotinib -0.009 | [1] -0.154 | dasatinib -0.065 | [2] 0.095 | [3] -0.086 | quisinostat -0.501 | tipifarnib 0.048 | [4] 0.05 | [6] -0.043

FUOM (UniProt A2VDF0)
inactive: nilotinib -0.002 | [1] -0.129 | dasatinib -0.031 | [2] 0.011 | [3] -0.061 | tipifarnib 0.306 | [5] -0.071 | [6] 0.097

FRYL (UniProt O94915)
inactive: nilotinib -0.046 | [1] 0.037 | dasatinib -0.052 | [2] -0.005 | [3] 0.005 | quisinostat -0.005 | tipifarnib 0.031 | [4] 0.037 | [5] 0.003 | [6] 0.049

FTH1 (UniProt P02794)
inactive: nilotinib 0.039 | [1] 0.077 | dasatinib -0.026 | [2] 0.038 | [3] 0.007 | quisinostat 0.042 | tipifarnib -0.022 | [4] -0.01 | [5] 0.035 | [6] 0.042

FOXP4 (UniProt Q8IVH2)
inactive: nilotinib -0.004 | [1] -0.003 | dasatinib -0.011 | [2] -0.032 | [3] 0.304 | tipifarnib -0.12 | [6] -0.029

GEMIN5 (UniProt Q8TEQ6)
inactive: nilotinib -0.003 | [1] -0.001 | dasatinib -0.046 | [2] 0.001 | [3] 0.037 | quisinostat -0.102 | tipifarnib 0.015 | [4] 0.031 | [5] 0.003 | [6] -0.027

GCLM (UniProt P48507)
inactive: nilotinib -0.03 | [1] 0.016 | dasatinib -0.033 | [2] 0.013 | [3] 0.027 | quisinostat 0.016 | tipifarnib 0.007 | [4] 0 | [5] -0.005 | [6] -0.005

Reprinted from the results shown (2 entries):
FTH1 (UniProt P02794)
inactive: nilotinib 0.039 | [1] 0.077 | dasatinib -0.026 | [2] 0.038 | [3] 0.007 | quisinostat 0.042 | tipifarnib -0.022 | [4] -0.01 | [5] 0.035 | [6] 0.042

FOXP4 (UniProt Q8IVH2)
inactive: nilotinib -0.004 | [1] -0.003 | dasatinib -0.011 | [2] -0.032 | [3] 0.304 | tipifarnib -0.12 | [6] -0.029

(cont.)

FXR1 (UniProt P51114)
inactive: nilotinib -0.139 | [1] 0.031 | dasatinib 0.028 | [2] -0.011 | [3] 0.018 | quisinostat -0.057 | tipifarnib -0.005 | [4] 0.024 | [5] -0.001 | [6] -0.047

GAK (UniProt O14976)
inactive: nilotinib 0.146 | [1] 0.32 | dasatinib 0.561 | [2] 0.063 | [3] -0.024 | quisinostat -0.168 | tipifarnib -0.418 | [4] 0.527 | [5] -0.006 | [6] -0.031

FUNDC1 (UniProt Q8IVP5)
inactive: nilotinib -0.083 | [1] 0.101 | dasatinib 0.149 | [2] -0.156 | [3] -0.435 | quisinostat 0.05 | tipifarnib -0.09 | [4] 0.149 | [5] -0.103 | [6] 0.017

FOXP1 (UniProt Q9H334)
inactive: nilotinib 0.033 | [1] 0.082 | dasatinib -0.047 | [2] -0.179 | [3] 0.092 | quisinostat -0.056 | tipifarnib 0.015 | [4] 0.005 | [6] 0.034

FUBP3 (UniProt Q96I24)
inactive: nilotinib -0.201 | [1] -0.016 | dasatinib -0.094 | [2] 0.012 | [3] 0.01 | quisinostat -0.029 | tipifarnib -0.009 | [4] 0.043 | [5] -0.005 | [6] 0.032
